The source of these data is article PMC8717606.

By UniProt entry, the sequences of proteins in these tests, tags left out. Where a name states a change or a piece, a line headed by the entry shows the natural chain unless it says otherwise. Chains listed by the source or under a name are the forms on record and can include a tag or linker. Residues count along the entry.
UniProt P24001: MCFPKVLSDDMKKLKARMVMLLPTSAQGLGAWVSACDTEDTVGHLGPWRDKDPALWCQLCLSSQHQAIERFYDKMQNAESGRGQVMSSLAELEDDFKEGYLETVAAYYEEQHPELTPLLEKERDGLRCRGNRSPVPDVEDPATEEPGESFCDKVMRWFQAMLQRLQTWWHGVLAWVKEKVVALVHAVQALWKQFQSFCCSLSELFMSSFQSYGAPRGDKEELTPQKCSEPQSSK
UniProt Q02127: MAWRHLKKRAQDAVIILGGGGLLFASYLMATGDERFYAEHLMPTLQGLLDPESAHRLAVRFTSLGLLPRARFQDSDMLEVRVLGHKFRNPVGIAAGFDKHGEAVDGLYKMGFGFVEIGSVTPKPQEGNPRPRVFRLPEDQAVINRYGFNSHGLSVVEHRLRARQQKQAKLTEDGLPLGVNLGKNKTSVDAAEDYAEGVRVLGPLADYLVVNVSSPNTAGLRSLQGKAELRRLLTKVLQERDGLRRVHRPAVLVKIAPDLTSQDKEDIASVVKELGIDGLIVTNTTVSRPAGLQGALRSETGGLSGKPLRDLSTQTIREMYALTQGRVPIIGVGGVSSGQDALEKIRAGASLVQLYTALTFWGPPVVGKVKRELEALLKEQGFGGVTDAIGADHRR
UniProt P10321, residues 25-366: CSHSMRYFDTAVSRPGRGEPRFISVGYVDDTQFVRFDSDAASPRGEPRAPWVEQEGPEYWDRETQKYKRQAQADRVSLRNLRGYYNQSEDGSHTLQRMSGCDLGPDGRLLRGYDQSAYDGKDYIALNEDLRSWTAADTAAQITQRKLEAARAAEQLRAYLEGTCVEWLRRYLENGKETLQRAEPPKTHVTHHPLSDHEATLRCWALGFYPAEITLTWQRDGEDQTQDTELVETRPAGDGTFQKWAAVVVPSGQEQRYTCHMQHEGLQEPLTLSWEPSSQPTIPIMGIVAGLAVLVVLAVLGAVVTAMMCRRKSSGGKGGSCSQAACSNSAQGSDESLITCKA
V-type proton ATPase 116 kDa subunit a isoform 1 (Q93050-1, form named): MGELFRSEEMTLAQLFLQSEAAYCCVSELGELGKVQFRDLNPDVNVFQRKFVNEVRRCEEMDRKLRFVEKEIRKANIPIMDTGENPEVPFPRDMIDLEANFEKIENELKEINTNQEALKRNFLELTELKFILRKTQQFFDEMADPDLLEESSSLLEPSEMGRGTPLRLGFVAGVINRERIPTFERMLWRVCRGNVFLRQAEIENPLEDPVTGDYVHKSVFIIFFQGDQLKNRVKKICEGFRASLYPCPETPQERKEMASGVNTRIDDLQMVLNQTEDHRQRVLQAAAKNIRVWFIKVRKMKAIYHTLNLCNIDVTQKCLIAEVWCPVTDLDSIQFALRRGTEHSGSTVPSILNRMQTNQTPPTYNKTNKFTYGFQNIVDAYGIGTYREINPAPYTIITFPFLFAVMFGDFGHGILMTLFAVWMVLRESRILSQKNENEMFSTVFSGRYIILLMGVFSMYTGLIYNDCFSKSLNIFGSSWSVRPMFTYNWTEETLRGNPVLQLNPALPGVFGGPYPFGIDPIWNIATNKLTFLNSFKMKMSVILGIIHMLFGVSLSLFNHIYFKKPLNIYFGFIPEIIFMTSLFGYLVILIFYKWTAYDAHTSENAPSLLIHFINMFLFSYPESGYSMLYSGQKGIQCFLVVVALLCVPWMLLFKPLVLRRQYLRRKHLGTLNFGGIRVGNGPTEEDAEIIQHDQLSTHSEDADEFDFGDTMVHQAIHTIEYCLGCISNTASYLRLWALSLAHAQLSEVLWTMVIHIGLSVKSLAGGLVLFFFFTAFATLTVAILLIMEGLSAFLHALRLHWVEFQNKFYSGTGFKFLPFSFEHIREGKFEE
UniProt P33908: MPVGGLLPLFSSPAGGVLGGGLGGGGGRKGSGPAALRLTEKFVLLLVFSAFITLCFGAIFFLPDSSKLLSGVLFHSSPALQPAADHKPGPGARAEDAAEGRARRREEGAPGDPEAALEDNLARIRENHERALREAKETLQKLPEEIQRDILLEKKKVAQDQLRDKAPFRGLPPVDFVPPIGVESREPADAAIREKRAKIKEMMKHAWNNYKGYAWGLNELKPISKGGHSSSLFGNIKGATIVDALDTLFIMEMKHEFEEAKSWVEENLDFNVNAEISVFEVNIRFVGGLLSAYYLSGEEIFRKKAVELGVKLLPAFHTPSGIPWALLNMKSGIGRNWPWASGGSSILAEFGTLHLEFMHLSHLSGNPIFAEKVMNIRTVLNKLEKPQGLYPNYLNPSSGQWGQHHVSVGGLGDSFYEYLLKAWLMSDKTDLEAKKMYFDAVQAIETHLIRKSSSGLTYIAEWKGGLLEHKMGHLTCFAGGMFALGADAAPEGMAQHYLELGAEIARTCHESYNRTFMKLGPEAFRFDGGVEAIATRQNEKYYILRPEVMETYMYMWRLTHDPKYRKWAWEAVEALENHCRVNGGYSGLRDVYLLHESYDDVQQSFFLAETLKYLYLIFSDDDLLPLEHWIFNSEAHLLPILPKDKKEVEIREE
UniProt Q15904, residues 42-470: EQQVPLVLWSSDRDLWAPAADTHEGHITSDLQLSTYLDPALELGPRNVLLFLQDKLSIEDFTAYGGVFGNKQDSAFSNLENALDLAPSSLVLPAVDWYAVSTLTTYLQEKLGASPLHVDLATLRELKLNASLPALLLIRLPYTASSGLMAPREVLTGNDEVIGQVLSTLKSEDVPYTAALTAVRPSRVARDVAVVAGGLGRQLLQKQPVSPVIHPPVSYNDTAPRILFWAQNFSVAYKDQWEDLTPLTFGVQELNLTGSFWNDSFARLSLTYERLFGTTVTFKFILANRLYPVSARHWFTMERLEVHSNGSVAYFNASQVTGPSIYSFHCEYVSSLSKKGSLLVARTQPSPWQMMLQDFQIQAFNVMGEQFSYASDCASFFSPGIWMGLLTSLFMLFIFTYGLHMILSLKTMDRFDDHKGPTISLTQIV
UniProt Q9UI09: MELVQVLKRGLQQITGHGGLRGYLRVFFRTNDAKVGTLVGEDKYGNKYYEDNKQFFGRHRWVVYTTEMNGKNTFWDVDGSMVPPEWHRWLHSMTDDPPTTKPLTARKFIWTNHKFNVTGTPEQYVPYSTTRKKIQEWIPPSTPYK
UniProt Q09470: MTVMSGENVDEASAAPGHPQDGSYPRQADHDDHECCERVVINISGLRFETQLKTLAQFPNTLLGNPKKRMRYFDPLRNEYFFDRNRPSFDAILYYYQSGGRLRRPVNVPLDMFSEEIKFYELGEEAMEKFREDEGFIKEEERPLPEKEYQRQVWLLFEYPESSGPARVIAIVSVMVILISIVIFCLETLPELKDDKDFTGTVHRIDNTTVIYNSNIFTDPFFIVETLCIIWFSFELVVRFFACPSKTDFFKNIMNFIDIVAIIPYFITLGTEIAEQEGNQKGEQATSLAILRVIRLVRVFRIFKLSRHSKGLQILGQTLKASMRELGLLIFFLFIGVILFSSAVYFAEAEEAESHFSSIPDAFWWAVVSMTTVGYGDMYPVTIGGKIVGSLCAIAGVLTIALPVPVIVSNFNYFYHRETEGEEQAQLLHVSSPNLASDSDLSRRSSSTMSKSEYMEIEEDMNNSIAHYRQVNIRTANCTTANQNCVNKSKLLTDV
UniProt Q9NPD3: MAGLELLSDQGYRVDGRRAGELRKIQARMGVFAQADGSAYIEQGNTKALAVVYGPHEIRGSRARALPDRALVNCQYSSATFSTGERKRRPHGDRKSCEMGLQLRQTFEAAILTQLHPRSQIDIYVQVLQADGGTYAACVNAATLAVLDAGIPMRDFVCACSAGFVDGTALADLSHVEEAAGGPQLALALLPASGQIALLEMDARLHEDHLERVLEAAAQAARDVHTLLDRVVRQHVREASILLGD
UniProt Q9Y2Q5: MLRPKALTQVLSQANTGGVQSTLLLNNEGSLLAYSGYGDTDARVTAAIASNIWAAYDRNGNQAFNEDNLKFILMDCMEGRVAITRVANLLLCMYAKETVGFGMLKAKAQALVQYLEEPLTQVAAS

These are yes or no findings as the source states them, for the method shown. In cells and extracts the contact can be indirect. A yes stands for co-enrichment or nearness to the bait. Other partners may have been found. Tags and fused reporters may be left off the sequences shown.

This assay has as its target Interleukin 32 (IL32) (Homo sapiens) (UniProt P24001). Briefly: affinity purification with mass spectrometry; endogenous IL-32 precipitated with IL-32 antibody (R&D) coupled to M-270 Dynabeads from pre-cleared lysates (1% CHAPS, 50 mM Tris, 150 mM NaCl) of JJN-3 cells kept 24 h in hypoxia (2% O2); 2 h at 4°C, 4 washes with PBS; IL-32 KO cells as control; 5 replicates.

On to “Dihydroorotate dehydrogenase (quinone) (DHODH) (from UniProt Q02127 1-395)”, for which the binding result is on record as “binds”.
Next, “Major histocompatibility complex, class I C (HLA-C) (from UniProt P10321 25-366)”: “binds”.
Then “Major histocompatibility complex, class I, B (HLA-B) (from UniProt P01889 25-362)”, with “binds”; and “V-type proton ATPase 116 kDa subunit a isoform 1 (from UniProt Q93050-1 1-831)”, with “binds”; and “Kinase D-interacting substrate of 220 kDa (from UniProt Q9ULH0-1 1-1771)”, with “binds”.
Then “Proteasome subunit alpha type-3 (from UniProt P25788-1 1-255)”, with “binds”; and “Mannosidase alpha class 1A member 1 (MAN1A1) (from UniProt P33908 1-653)”, with “binds”; and “ATPase H+ transporting accessory protein 1 (ATP6AP1) (from UniProt Q15904 42-470)”, with “binds”.
For “NADH:ubiquinone oxidoreductase subunit A12 (NDUFA12) (from UniProt Q9UI09 1-145)”, the binding result is on record as “binds”.
For the molecule “Potassium voltage-gated channel subfamily A member 1 (KCNA1) (from UniProt Q09470 1-495)”, the binding result is recorded as “binds”.
Next, “Exosome component 4 (EXOSC4) (from UniProt Q9NPD3 1-245)”: “binds”; “Late endosomal/lysosomal adaptor, MAPK and MTOR activator 2 (LAMTOR2) (from UniProt Q9Y2Q5 1-125)”: “binds”.

B1: Chloride voltage-gated channel 5 (CLCN5) (protein, UniProt P51795 1-816)
chain: MAMWQGAMDNRGFQQGSFSSFQNSSSDEDLMDIPATAMDFSMRDDVPPLDREVGEDKSYNGGGIGSSNRIMDFLEEPIPGVGTYDDFNTIDWVREKSRDRDRHREITNKSKESTWALIHSVSDAFSGWLLMLLIGLLSGSLAGLIDISAHWMTDLKEGICTGGFWFNHEHCCWNSEHVTFEERDKCPEWNSWSQLIISTDEGAFAYIVNYFMYVLWALLFAFLAVSLVKVFAPYACGSGIPEIKTILSGFIIRGYLGKWTLVIKTITLVLAVSSGLSLGKEGPLVHVACCCGNILCHCFNKYRKNEAKRREVLSAAAAAGVSVAFGAPIGGVLFSLEEVSYYFPLKTLWRSFFAALVAAFTLRSINPFGNSRLVLFYVEFHTPWHLFELVPFILLGIFGGLWGALFIRTNIAWCRKRKTTQLGKYPVIEVLVVTAITAILAFPNEYTRMSTSELISELFNDCGLLDSSKLCDYENRFNTSKGGELPDRPAGVGVYSAMWQLALTLILKIVITIFTFGMKIPSGLFIPSMAVGAIAGRLLGVGMEQLAYYHQEWTVFNSWCSQGADCITPGLYAMVGAAACLGGVTRMTVSLVVIMFELTGGLEYIVPLMAAAMTSKWVADALGREGIYDAHIRLNGYPFLEAKEEFAHKTLAMDVMKPRRNDPLLTVLTQDSMTVEDVETIISETTYSGFPVVVSRESQRLVGFVLRRDLIISIENARKKQDGVVSTSIIYFTEHSPPLPPYTPPTLKLRNILDLSPFTVTDLTPMEIVVDIFRKLGLRQCLVTHNGRLLGIITKKDVLKHIAQMANQDPDSILFN
On to B1, for which the binding result was “binds”.
